Structures can show the parent of a compound that is named as a salt. The list shows a part of the results. Hit calls seldom repeat between salt and free forms of one compound.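 In K562 cells expressing nanoluciferase-fused kinases, luminescence was recorded at 4 h intervals between 2 and 18 h, normalized as percent of control with DMSO at 100% and a positive control at 0%. A significant (2 sigma) signal drop marks a time point as decreased. The authors' rule for a hit is not shown and takes in more than the number of time points.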
Legend:
Conditions in all cases: K562; 2-18 h
RET = RET (UniProt P07949); assay: kinase-Nluc reporter destabilization hit call (1 = scored as downregulated) (binary); higher = compound decreases kinase abundance
[1] = target: RET_M918T (clone: RET_mut) (UniProt P07949); assay: as above
RIOK1 = RIOK1 (UniProt Q9BRS2); assay: as above
RIPK1 = RIPK1 (UniProt Q13546); assay: as above
RIPK2 = RIPK2 (UniProt O43353); assay: as above
ROR2 = ROR2 (UniProt Q01974); assay: as above
RPS6KA1 = RPS6KA1 (UniProt Q15418); assay: as above
SPHK1 = SPHK1 (UniProt Q9NYA1); assay: as above
SRC = SRC (UniProt P12931); assay: as above
STK24 = STK24 (UniProt Q9Y6E0); assay: as above
STK38 = STK38 (UniProt Q15208); assay: as above
SYK = SYK (UniProt P43405); assay: as above
TEC = TEC (UniProt P42680); assay: as above
TYK2 = TYK2 (UniProt P29597); assay: as above
ULK3 = ULK3 (UniProt Q6PHR2); assay: as above
YES1 = YES1 (UniProt P07947); assay: as above
ZAK = ZAK (UniProt Q9NYL2); assay: as above
ZAP70 = ZAP70 (UniProt P43403); assay: as above
ABL1 = ABL1 (UniProt P00519); assay: number of time points (of 5) at which kinase-Nluc abundance scored as decreased, DMSO-normalised (count); higher = more persistent destabilization
AKT1 = AKT1 (UniProt P31749); assay: as above

Protein sequences, listed by entry. Tags and fused reporters are not part of them. Lines headed by an entry give the natural chain unless they say otherwise; changes in a name come on top.
UniProt Q13546: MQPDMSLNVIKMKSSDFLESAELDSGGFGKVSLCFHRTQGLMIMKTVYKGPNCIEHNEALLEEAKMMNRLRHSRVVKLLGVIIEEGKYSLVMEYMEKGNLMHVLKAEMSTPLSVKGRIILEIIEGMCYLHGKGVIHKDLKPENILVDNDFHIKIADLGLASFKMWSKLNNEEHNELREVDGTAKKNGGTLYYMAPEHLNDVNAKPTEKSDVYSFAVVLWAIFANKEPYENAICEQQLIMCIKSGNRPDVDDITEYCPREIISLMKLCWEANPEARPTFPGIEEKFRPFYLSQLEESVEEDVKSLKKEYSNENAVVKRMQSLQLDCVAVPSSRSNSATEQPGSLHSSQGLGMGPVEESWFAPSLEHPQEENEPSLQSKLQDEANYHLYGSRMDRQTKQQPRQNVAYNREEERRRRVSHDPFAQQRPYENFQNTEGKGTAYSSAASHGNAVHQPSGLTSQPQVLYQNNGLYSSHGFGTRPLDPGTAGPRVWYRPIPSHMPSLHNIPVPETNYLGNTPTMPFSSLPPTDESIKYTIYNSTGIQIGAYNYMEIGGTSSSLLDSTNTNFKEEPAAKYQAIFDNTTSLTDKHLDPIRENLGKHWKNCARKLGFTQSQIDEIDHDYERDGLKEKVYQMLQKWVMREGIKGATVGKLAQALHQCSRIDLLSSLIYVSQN
UniProt Q01974, whole entry: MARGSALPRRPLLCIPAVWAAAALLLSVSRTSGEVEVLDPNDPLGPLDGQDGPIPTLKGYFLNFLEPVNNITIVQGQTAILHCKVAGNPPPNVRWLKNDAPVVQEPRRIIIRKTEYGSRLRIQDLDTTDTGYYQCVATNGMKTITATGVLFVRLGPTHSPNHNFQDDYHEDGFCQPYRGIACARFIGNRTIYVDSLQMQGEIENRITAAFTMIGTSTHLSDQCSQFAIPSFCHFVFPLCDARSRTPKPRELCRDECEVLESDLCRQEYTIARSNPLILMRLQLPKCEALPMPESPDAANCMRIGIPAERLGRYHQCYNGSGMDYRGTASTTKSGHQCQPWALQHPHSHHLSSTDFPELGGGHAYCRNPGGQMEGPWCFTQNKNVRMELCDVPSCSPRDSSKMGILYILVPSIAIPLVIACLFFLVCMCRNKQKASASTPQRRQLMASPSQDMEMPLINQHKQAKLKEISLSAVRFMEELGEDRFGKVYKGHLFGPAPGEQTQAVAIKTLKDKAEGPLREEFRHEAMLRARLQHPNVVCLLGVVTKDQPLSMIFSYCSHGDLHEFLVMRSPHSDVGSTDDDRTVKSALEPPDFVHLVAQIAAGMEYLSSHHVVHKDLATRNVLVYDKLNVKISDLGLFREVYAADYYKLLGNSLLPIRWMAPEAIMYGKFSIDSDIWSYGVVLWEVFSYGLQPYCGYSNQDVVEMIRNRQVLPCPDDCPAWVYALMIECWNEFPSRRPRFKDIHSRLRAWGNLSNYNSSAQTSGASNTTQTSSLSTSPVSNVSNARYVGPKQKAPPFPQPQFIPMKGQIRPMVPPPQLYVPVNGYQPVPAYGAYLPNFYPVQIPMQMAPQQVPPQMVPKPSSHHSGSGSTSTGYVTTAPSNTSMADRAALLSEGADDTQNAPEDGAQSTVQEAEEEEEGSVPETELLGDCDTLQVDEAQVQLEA
UniProt Q15418, whole entry: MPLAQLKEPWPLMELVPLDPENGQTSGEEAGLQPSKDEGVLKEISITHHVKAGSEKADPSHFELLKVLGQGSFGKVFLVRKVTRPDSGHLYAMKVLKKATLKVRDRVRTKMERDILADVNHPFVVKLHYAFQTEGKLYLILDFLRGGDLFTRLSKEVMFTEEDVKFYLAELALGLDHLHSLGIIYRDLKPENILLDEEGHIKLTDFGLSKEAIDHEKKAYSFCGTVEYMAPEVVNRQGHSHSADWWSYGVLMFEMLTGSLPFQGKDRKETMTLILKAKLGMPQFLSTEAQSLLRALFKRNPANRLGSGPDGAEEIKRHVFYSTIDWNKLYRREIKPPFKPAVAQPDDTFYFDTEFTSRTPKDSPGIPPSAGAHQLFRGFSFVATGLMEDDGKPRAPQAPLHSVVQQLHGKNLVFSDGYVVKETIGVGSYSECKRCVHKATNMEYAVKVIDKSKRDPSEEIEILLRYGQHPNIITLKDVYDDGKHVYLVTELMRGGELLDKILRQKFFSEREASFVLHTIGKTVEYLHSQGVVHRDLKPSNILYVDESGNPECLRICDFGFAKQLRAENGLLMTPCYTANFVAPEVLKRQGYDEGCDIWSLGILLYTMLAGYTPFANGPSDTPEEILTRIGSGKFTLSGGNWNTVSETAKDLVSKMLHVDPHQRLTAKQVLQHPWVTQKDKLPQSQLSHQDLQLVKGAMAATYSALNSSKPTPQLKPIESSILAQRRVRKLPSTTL
UniProt P29597: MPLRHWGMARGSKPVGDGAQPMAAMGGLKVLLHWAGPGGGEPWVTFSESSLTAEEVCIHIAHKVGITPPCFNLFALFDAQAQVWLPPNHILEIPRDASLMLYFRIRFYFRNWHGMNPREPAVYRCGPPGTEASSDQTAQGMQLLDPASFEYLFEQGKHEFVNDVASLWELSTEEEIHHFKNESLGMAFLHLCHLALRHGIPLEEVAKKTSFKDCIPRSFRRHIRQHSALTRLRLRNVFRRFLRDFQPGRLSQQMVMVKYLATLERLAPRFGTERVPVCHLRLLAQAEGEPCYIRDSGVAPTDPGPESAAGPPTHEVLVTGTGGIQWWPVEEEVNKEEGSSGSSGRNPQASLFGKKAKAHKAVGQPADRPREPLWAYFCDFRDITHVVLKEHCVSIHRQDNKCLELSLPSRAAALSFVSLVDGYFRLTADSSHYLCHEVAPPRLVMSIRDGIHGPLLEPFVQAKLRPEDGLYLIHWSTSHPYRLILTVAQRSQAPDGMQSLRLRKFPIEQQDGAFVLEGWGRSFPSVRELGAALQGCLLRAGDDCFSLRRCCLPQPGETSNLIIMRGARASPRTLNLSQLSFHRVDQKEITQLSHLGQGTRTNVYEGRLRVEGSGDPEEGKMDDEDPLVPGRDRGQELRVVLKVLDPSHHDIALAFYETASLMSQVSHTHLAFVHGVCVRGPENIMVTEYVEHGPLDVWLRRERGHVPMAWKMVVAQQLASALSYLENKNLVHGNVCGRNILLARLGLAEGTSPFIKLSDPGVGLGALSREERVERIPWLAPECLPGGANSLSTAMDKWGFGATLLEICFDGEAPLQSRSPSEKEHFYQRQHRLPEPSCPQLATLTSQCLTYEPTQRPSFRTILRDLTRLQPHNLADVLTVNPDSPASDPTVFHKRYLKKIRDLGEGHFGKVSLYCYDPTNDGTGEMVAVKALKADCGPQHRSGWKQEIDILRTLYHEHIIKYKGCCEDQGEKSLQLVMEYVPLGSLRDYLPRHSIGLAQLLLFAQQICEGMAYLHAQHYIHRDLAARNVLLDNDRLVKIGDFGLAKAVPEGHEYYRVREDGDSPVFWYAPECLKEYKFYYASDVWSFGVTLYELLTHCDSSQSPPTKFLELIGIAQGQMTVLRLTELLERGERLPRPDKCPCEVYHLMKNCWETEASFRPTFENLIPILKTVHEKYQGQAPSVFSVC
UniProt P07947, whole entry, looked up: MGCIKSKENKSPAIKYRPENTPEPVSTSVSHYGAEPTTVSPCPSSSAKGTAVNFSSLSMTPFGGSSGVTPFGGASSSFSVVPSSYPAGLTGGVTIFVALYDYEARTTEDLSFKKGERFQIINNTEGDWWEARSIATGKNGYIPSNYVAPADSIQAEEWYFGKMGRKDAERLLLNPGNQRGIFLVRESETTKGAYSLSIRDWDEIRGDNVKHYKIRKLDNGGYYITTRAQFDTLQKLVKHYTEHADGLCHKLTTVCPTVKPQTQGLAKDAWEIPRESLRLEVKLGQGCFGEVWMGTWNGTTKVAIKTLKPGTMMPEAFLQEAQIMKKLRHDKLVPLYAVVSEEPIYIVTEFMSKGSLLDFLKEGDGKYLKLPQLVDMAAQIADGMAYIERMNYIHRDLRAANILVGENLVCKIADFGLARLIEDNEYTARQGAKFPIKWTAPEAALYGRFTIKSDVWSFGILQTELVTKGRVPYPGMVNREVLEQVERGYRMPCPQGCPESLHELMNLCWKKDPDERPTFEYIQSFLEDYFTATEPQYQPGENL
UniProt P43403: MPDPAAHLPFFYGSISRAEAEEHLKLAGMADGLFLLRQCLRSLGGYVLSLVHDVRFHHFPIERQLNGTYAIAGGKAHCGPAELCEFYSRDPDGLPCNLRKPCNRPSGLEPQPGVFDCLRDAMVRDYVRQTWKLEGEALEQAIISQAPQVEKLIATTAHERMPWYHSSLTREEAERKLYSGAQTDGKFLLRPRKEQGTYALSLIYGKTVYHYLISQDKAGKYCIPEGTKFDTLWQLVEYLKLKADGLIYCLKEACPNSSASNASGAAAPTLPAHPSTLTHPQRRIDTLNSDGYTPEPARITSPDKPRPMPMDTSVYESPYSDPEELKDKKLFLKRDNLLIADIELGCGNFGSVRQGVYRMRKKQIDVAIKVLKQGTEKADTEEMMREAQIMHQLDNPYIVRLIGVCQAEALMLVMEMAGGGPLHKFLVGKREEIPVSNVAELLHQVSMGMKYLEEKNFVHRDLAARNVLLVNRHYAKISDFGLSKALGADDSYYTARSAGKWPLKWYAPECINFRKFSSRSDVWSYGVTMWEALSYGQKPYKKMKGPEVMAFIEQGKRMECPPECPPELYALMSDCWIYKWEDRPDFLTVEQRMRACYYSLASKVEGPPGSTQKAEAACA
UniProt P00519, whole entry: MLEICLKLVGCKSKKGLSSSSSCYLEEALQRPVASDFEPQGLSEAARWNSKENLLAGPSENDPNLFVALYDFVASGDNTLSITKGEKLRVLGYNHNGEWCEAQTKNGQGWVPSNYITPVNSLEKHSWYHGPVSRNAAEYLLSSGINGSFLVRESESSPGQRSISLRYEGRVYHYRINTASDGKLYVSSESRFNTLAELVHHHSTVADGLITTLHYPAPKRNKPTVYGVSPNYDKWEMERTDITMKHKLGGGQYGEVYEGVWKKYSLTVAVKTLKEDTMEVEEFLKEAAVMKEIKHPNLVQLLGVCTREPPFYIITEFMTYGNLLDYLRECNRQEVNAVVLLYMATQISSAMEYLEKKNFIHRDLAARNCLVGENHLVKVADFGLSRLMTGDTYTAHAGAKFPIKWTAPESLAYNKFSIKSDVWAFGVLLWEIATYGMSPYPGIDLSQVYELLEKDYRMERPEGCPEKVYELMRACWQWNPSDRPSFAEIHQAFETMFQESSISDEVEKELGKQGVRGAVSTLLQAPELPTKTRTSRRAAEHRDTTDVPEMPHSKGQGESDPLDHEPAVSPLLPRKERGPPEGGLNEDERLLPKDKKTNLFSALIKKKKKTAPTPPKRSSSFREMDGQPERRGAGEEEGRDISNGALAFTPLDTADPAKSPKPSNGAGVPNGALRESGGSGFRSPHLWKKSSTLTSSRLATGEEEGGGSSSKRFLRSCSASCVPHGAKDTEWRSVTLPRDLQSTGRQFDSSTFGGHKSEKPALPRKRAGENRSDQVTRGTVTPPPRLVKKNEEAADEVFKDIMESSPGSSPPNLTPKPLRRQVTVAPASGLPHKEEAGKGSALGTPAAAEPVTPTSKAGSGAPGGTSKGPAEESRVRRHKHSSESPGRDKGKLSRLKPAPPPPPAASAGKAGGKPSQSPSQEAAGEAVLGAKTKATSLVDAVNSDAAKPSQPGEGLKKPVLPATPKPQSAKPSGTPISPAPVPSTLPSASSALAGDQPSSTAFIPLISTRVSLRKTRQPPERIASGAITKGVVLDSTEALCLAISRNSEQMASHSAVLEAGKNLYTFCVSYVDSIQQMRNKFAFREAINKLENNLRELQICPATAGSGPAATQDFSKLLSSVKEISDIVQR
UniProt P31749: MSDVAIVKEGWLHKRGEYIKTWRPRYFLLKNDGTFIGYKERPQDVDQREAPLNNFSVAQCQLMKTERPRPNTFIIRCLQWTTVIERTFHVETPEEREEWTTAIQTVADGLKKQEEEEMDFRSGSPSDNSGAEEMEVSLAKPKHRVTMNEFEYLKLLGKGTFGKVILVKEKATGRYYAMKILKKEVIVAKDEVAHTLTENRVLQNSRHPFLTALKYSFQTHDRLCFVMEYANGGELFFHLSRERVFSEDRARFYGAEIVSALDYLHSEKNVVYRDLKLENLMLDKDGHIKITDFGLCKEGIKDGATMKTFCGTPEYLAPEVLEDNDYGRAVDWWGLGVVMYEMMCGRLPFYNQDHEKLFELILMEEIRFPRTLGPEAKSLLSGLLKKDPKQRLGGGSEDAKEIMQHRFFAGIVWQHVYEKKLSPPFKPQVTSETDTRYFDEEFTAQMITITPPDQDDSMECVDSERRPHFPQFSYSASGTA

NC(=O)c1sc2c([N+](=O)[O-])cc(C(F)(F)F)cc2[n+]1[O-] [Cyclapolin 9] (10 µM)
0: number of time points (ABL1) | number of time points (AKT1)
inactive: kinase-Nluc reporter destabilization hit call (RET) 0 | kinase-Nluc reporter destabilization hit call [1] 0 | kinase-Nluc reporter destabilization hit call (RIOK1) 0 | kinase-Nluc reporter destabilization hit call (RIPK1) 0 | kinase-Nluc reporter destabilization hit call (RIPK2) 0 | kinase-Nluc reporter destabilization hit call (ROR2) 0 | kinase-Nluc reporter destabilization hit call (RPS6KA1) 0 | kinase-Nluc reporter destabilization hit call (SPHK1) 0 | kinase-Nluc reporter destabilization hit call (SRC) 0 | kinase-Nluc reporter destabilization hit call (STK24) 0 | kinase-Nluc reporter destabilization hit call (STK38) 0 | kinase-Nluc reporter destabilization hit call (SYK) 0 | kinase-Nluc reporter destabilization hit call (TEC) 0 | kinase-Nluc reporter destabilization hit call (TYK2) 0 | kinase-Nluc reporter destabilization hit call (ULK3) 0 | kinase-Nluc reporter destabilization hit call (YES1) 0 | kinase-Nluc reporter destabilization hit call (ZAK) 0 | kinase-Nluc reporter destabilization hit call (ZAP70) 0

CNCCOc1ccccc1C1(Nc2nccn(-c3cc(C(=O)NC4CC4)cc(F)c3C)c2=O)CC1 (10 µM)
0: number of time points (ABL1) | number of time points (AKT1)
inactive: kinase-Nluc reporter destabilization hit call (RET) 0 | kinase-Nluc reporter destabilization hit call [1] 0 | kinase-Nluc reporter destabilization hit call (RIOK1) 0 | kinase-Nluc reporter destabilization hit call (RIPK1) 0 | kinase-Nluc reporter destabilization hit call (RIPK2) 0 | kinase-Nluc reporter destabilization hit call (ROR2) 0 | kinase-Nluc reporter destabilization hit call (RPS6KA1) 0 | kinase-Nluc reporter destabilization hit call (SPHK1) 0 | kinase-Nluc reporter destabilization hit call (SRC) 0 | kinase-Nluc reporter destabilization hit call (STK24) 0 | kinase-Nluc reporter destabilization hit call (STK38) 0 | kinase-Nluc reporter destabilization hit call (SYK) 0 | kinase-Nluc reporter destabilization hit call (TEC) 0 | kinase-Nluc reporter destabilization hit call (TYK2) 0 | kinase-Nluc reporter destabilization hit call (ULK3) 0 | kinase-Nluc reporter destabilization hit call (YES1) 0 | kinase-Nluc reporter destabilization hit call (ZAK) 0 | kinase-Nluc reporter destabilization hit call (ZAP70) 0

O=C(Nc1ccc(Cl)cc1)C1CN(C(=O)c2cccc(-c3ccco3)c2)CC(F)(F)C1 (stereo not given) (2.5 µM)
inactive: kinase-Nluc reporter destabilization hit call (RET) 0 | kinase-Nluc reporter destabilization hit call [1] 0 | kinase-Nluc reporter destabilization hit call (RIOK1) 0 | kinase-Nluc reporter destabilization hit call (RIPK1) 0 | kinase-Nluc reporter destabilization hit call (RIPK2) 0 | kinase-Nluc reporter destabilization hit call (ROR2) 0 | kinase-Nluc reporter destabilization hit call (RPS6KA1) 0 | kinase-Nluc reporter destabilization hit call (SPHK1) 0 | kinase-Nluc reporter destabilization hit call (SRC) 0 | kinase-Nluc reporter destabilization hit call (STK24) 0 | kinase-Nluc reporter destabilization hit call (STK38) 0 | kinase-Nluc reporter destabilization hit call (SYK) 0 | kinase-Nluc reporter destabilization hit call (TEC) 0 | kinase-Nluc reporter destabilization hit call (TYK2) 0 | kinase-Nluc reporter destabilization hit call (ULK3) 0 | kinase-Nluc reporter destabilization hit call (YES1) 0 | kinase-Nluc reporter destabilization hit call (ZAK) 0 | kinase-Nluc reporter destabilization hit call (ZAP70) 0
0: number of time points (ABL1) | number of time points (AKT1)

CN(C)c1ccc(/C=C2\C(=O)Nc3ccccc32)c2ccccc12 (10 µM)
0: number of time points (ABL1) | number of time points (AKT1)
inactive: kinase-Nluc reporter destabilization hit call (RET) 0 | kinase-Nluc reporter destabilization hit call [1] 0 | kinase-Nluc reporter destabilization hit call (RIOK1) 0 | kinase-Nluc reporter destabilization hit call (RIPK1) 0 | kinase-Nluc reporter destabilization hit call (RIPK2) 0 | kinase-Nluc reporter destabilization hit call (ROR2) 0 | kinase-Nluc reporter destabilization hit call (RPS6KA1) 0 | kinase-Nluc reporter destabilization hit call (SPHK1) 0 | kinase-Nluc reporter destabilization hit call (SRC) 0 | kinase-Nluc reporter destabilization hit call (STK24) 0 | kinase-Nluc reporter destabilization hit call (STK38) 0 | kinase-Nluc reporter destabilization hit call (SYK) 0 | kinase-Nluc reporter destabilization hit call (TEC) 0 | kinase-Nluc reporter destabilization hit call (TYK2) 0 | kinase-Nluc reporter destabilization hit call (ULK3) 0 | kinase-Nluc reporter destabilization hit call (YES1) 0 | kinase-Nluc reporter destabilization hit call (ZAK) 0 | kinase-Nluc reporter destabilization hit call (ZAP70) 0

COc1ccc(CCNCc2ccc(OCc3ccc(Cl)nc3)c(OC)c2)cc1OC [SBE13 (Hydrochloride)] (10 µM)
0: number of time points (ABL1) | number of time points (AKT1)
inactive: kinase-Nluc reporter destabilization hit call (RET) 0 | kinase-Nluc reporter destabilization hit call [1] 0 | kinase-Nluc reporter destabilization hit call (RIOK1) 0 | kinase-Nluc reporter destabilization hit call (RIPK1) 0 | kinase-Nluc reporter destabilization hit call (RIPK2) 0 | kinase-Nluc reporter destabilization hit call (ROR2) 0 | kinase-Nluc reporter destabilization hit call (RPS6KA1) 0 | kinase-Nluc reporter destabilization hit call (SPHK1) 0 | kinase-Nluc reporter destabilization hit call (SRC) 0 | kinase-Nluc reporter destabilization hit call (STK24) 0 | kinase-Nluc reporter destabilization hit call (STK38) 0 | kinase-Nluc reporter destabilization hit call (SYK) 0 | kinase-Nluc reporter destabilization hit call (TEC) 0 | kinase-Nluc reporter destabilization hit call (TYK2) 0 | kinase-Nluc reporter destabilization hit call (ULK3) 0 | kinase-Nluc reporter destabilization hit call (YES1) 0 | kinase-Nluc reporter destabilization hit call (ZAK) 0 | kinase-Nluc reporter destabilization hit call (ZAP70) 0

C=CC(=O)N1CCC(c2ccc(C(N)=O)c(-c3ccc(Oc4ccccc4)cc3)n2)CC1 [Orelabrutinib] (2.5 µM)
0: number of time points (ABL1) | number of time points (AKT1)
inactive: kinase-Nluc reporter destabilization hit call (RET) 0 | kinase-Nluc reporter destabilization hit call [1] 0 | kinase-Nluc reporter destabilization hit call (RIOK1) 0 | kinase-Nluc reporter destabilization hit call (RIPK1) 0 | kinase-Nluc reporter destabilization hit call (RIPK2) 0 | kinase-Nluc reporter destabilization hit call (ROR2) 0 | kinase-Nluc reporter destabilization hit call (RPS6KA1) 0 | kinase-Nluc reporter destabilization hit call (SPHK1) 0 | kinase-Nluc reporter destabilization hit call (SRC) 0 | kinase-Nluc reporter destabilization hit call (STK24) 0 | kinase-Nluc reporter destabilization hit call (STK38) 0 | kinase-Nluc reporter destabilization hit call (SYK) 0 | kinase-Nluc reporter destabilization hit call (TEC) 0 | kinase-Nluc reporter destabilization hit call (TYK2) 0 | kinase-Nluc reporter destabilization hit call (ULK3) 0 | kinase-Nluc reporter destabilization hit call (YES1) 0 | kinase-Nluc reporter destabilization hit call (ZAK) 0 | kinase-Nluc reporter destabilization hit call (ZAP70) 0

O=C1Cc2ccccc2N1 [Oxindole] (10 µM)
0: number of time points (ABL1) | number of time points (AKT1)
inactive: kinase-Nluc reporter destabilization hit call (RET) 0 | kinase-Nluc reporter destabilization hit call [1] 0 | kinase-Nluc reporter destabilization hit call (RIOK1) 0 | kinase-Nluc reporter destabilization hit call (RIPK1) 0 | kinase-Nluc reporter destabilization hit call (RIPK2) 0 | kinase-Nluc reporter destabilization hit call (ROR2) 0 | kinase-Nluc reporter destabilization hit call (RPS6KA1) 0 | kinase-Nluc reporter destabilization hit call (SPHK1) 0 | kinase-Nluc reporter destabilization hit call (SRC) 0 | kinase-Nluc reporter destabilization hit call (STK24) 0 | kinase-Nluc reporter destabilization hit call (STK38) 0 | kinase-Nluc reporter destabilization hit call (SYK) 0 | kinase-Nluc reporter destabilization hit call (TEC) 0 | kinase-Nluc reporter destabilization hit call (TYK2) 0 | kinase-Nluc reporter destabilization hit call (ULK3) 0 | kinase-Nluc reporter destabilization hit call (YES1) 0 | kinase-Nluc reporter destabilization hit call (ZAK) 0 | kinase-Nluc reporter destabilization hit call (ZAP70) 0

Cc1cnc(Cl)nc1-c1ccc(N(Cc2ccc(CNC(=O)C(F)F)cc2)C(=O)c2ccc(O)cc2O)cc1 (10 µM)
0: number of time points (ABL1) | number of time points (AKT1)
inactive: kinase-Nluc reporter destabilization hit call (RET) 0 | kinase-Nluc reporter destabilization hit call [1] 0 | kinase-Nluc reporter destabilization hit call (RIOK1) 0 | kinase-Nluc reporter destabilization hit call (RIPK1) 0 | kinase-Nluc reporter destabilization hit call (RIPK2) 0 | kinase-Nluc reporter destabilization hit call (ROR2) 0 | kinase-Nluc reporter destabilization hit call (RPS6KA1) 0 | kinase-Nluc reporter destabilization hit call (SPHK1) 0 | kinase-Nluc reporter destabilization hit call (SRC) 0 | kinase-Nluc reporter destabilization hit call (STK24) 0 | kinase-Nluc reporter destabilization hit call (STK38) 0 | kinase-Nluc reporter destabilization hit call (SYK) 0 | kinase-Nluc reporter destabilization hit call (TEC) 0 | kinase-Nluc reporter destabilization hit call (TYK2) 0 | kinase-Nluc reporter destabilization hit call (ULK3) 0 | kinase-Nluc reporter destabilization hit call (YES1) 0 | kinase-Nluc reporter destabilization hit call (ZAK) 0 | kinase-Nluc reporter destabilization hit call (ZAP70) 0

COc1ccc(Br)c(C=O)c1O [6-Bromo-2-hydroxy-3-methoxybenzaldehyde] (10 µM)
0: number of time points (ABL1) | number of time points (AKT1)
inactive: kinase-Nluc reporter destabilization hit call (RET) 0 | kinase-Nluc reporter destabilization hit call [1] 0 | kinase-Nluc reporter destabilization hit call (RIOK1) 0 | kinase-Nluc reporter destabilization hit call (RIPK1) 0 | kinase-Nluc reporter destabilization hit call (RIPK2) 0 | kinase-Nluc reporter destabilization hit call (ROR2) 0 | kinase-Nluc reporter destabilization hit call (RPS6KA1) 0 | kinase-Nluc reporter destabilization hit call (SPHK1) 0 | kinase-Nluc reporter destabilization hit call (SRC) 0 | kinase-Nluc reporter destabilization hit call (STK24) 0 | kinase-Nluc reporter destabilization hit call (STK38) 0 | kinase-Nluc reporter destabilization hit call (SYK) 0 | kinase-Nluc reporter destabilization hit call (TEC) 0 | kinase-Nluc reporter destabilization hit call (TYK2) 0 | kinase-Nluc reporter destabilization hit call (ULK3) 0 | kinase-Nluc reporter destabilization hit call (YES1) 0 | kinase-Nluc reporter destabilization hit call (ZAK) 0 | kinase-Nluc reporter destabilization hit call (ZAP70) 0

Reference: the supplement of paper PMC12823440, “Inhibitors supercharge kinase turnover through native proteolytic circuits” (Nature, 2025)
